Reference: the supplement of paper PMC10735217
This is one part of the list. This data set is noisy: repeats of one test often differ as much as different tests do.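 The human kidney-derived cells carry a stably integrated construct of eight TEAD-binding elements driving luciferase, read by luminescence in a drug-repurposing library screen. A compound counts as a hit when its signal is more than five robust Z scores above the plate mean.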

System: HEK293A TEAD-LUC reporter
Assay: TEAD-luciferase reporter activity (YAP activation), robust Z score vs plate; higher = stronger YAP/TEAD activation
Settings: 24 h

C[C@@H](NCCCn1ccnc1)c1ccc(Cl)cc1
TEAD-luciferase reporter activity (compound concentration: 200 nM): inactive: 0.962 | TEAD-luciferase reporter activity (compound concentration: 2 uM): inactive: 0.569 | TEAD-luciferase reporter activity (compound concentration: 10 uM): inactive: -0.917

CC(C)[C@H](CO)Nc1nc(Nc2cccc(Cl)c2)c2ncn(C(C)C)c2n1 [Purvalanol A]
TEAD-luciferase reporter activity (compound concentration: 200 nM): inactive: 0.951 | TEAD-luciferase reporter activity (compound concentration: 2 uM): inactive: 1.23 | TEAD-luciferase reporter activity (compound concentration: 10 uM): inactive: 0.967

CC(C)[C@H](NC(=O)c1cc(-c2ccc(Nc3nc4ccc(F)cc4s3)cc2)no1)C(=O)O
TEAD-luciferase reporter activity (compound concentration: 200 nM): inactive: -0.474 | TEAD-luciferase reporter activity (compound concentration: 2 uM): inactive: 1.18 | TEAD-luciferase reporter activity (compound concentration: 10 uM): inactive: 0.402

C=C[C@@]1(C)CC(=O)[C@]2(O)[C@@]3(C)[C@@H](O)CCC(C)(C)[C@@H]3[C@H](OC(=O)CCN(C)C)[C@H](OC(C)=O)[C@@]2(C)O1 [colforsin daropate]
TEAD-luciferase reporter activity (compound concentration: 200 nM): inactive: -0.187 | TEAD-luciferase reporter activity (compound concentration: 2 uM): inactive: -2.12 | TEAD-luciferase reporter activity (compound concentration: 10 uM): inactive: -0.778

Cc1cn(CCCCN2CCN(c3cc(C(F)(F)F)nc(C(C)(C)C)n3)CC2)c(=O)nc1O
TEAD-luciferase reporter activity (compound concentration: 200 nM): inactive: 1.61 | TEAD-luciferase reporter activity (compound concentration: 2 uM): inactive: -0.28 | TEAD-luciferase reporter activity (compound concentration: 10 uM): inactive: 3.53

CCN(CC)CCOCC(COc1ccccc1OC)OCCN(CC)CC (configuration not stated)
TEAD-luciferase reporter activity (compound concentration: 2 uM): inactive: 2.25

CCN(CC)CCOCC(COc1ccccc1OC)OCCN(CC)CC (configuration not stated) [Cercainide]
TEAD-luciferase reporter activity (compound concentration: 200 nM): inactive: -1.81 | TEAD-luciferase reporter activity (compound concentration: 10 uM): inactive: -0.327

Clc1ccc(CCCOCCCN2CCCCC2)cc1 [pitolisant]
TEAD-luciferase reporter activity (compound concentration: 200 nM): inactive: -0.188 | TEAD-luciferase reporter activity (compound concentration: 2 uM): inactive: 3.01 | TEAD-luciferase reporter activity (compound concentration: 10 uM): inactive: 1.73

Cc1cc(N2CC=C(C(N)=O)CC2)c2cccc(-c3ccc(Cl)cc3Cl)c2n1
TEAD-luciferase reporter activity (compound concentration: 200 nM): inactive: -1.4 | TEAD-luciferase reporter activity (compound concentration: 2 uM): inactive: 0.967 | TEAD-luciferase reporter activity (compound concentration: 10 uM): inactive: -0.817

CC(C)(C)NCC(O)COc1ccccc1-c1ccc(NN)nn1 (configuration not stated) [prizidilol]
TEAD-luciferase reporter activity (compound concentration: 200 nM): inactive: -0.715 | TEAD-luciferase reporter activity (compound concentration: 2 uM): inactive: 1.78 | TEAD-luciferase reporter activity (compound concentration: 10 uM): inactive: 1.2

O=C(Cc1ccc(C(=O)O)cc1)NC(c1ccccc1)c1ccccc1N1CCCCC1 (configuration not stated)
TEAD-luciferase reporter activity (compound concentration: 200 nM): inactive: -0.849 | TEAD-luciferase reporter activity (compound concentration: 2 uM): inactive: 0.719 | TEAD-luciferase reporter activity (compound concentration: 10 uM): inactive: 1.71

CN(C)c1ccc(NC(=O)N(Cc2cccc(CN(C(=O)Nc3ccc(N(C)C)cc3)C3CCCCCC3)c2)C2CCCCCC2)cc1
TEAD-luciferase reporter activity (compound concentration: 200 nM): inactive: 2.64 | TEAD-luciferase reporter activity (compound concentration: 2 uM): inactive: 1.24 | TEAD-luciferase reporter activity (compound concentration: 10 uM): inactive: 1.45

C=C1/C(=C\C=C2/CCC[C@]3(C)[C@@H]([C@H](C)/C=C/C=C/C(O)(CC)CC)CC[C@@H]23)C[C@@H](O)C[C@@H]1O [Seocalcitol]
TEAD-luciferase reporter activity (compound concentration: 200 nM): inactive: -3.15 | TEAD-luciferase reporter activity (compound concentration: 2 uM): inactive: -0.583 | TEAD-luciferase reporter activity (compound concentration: 10 uM): inactive: 1.69

CN(c1c2c(c(O)c3ncccc13)C(=O)N(Cc1ccc(F)cc1)C2)S(C)(=O)=O
TEAD-luciferase reporter activity (compound concentration: 200 nM): inactive: -0.609 | TEAD-luciferase reporter activity (compound concentration: 2 uM): inactive: 0.0602 | TEAD-luciferase reporter activity (compound concentration: 10 uM): inactive: -0.418

Cn1cc(-c2ccc(=O)n(Cc3cccc(-c4ncc(OCCN5CCOCC5)cn4)c3)n2)cn1
TEAD-luciferase reporter activity (compound concentration: 200 nM): inactive: -0.266 | TEAD-luciferase reporter activity (compound concentration: 2 uM): inactive: -0.926 | TEAD-luciferase reporter activity (compound concentration: 10 uM): inactive: 0.725
